# According to the supplement of paper PMC8728848:
# Some of the results follow.
# B1: Epa21 (Candida glabrata) (protein)
# chain: MGSSHHHHHHSSGLVPRGSHMASTPNIESHPQGCSPVDTSGIKPGLKMDLYRFPITPPGTGCWSWDWLTVTPDFPRSGYWKWPKIAEVDGVVGPLHLDSGHPTCDPLTSVLPHGFNYLQSITTTNFTMVLHGYFVPKQSGKYTFEFKADDALLLNLGAGNAFSCCDYNNSQYNQGEYLAYAIWSKNNQTATLYLEKGIYYPIRVFYHNRCCGAYMDVVYYFNDSPIPNRDFSGLLFSIPDSDSCDANI
# What was measured:
# Assay in all cases: glycan array binding signal (z-score within array); higher = stronger binding
# Settings in all cases: glycan notation: IUPAC condensed, linker removed
# [1] = biological target: Gal(b1-4)GalNAc(b1-3)[Fuc(a1-2)]Gal(b1-4)GlcNAc
# In short: (§1)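 Glycan array binding is given as a within-array Z-score, which can be read as non-binding when negative. The arrays, 3228 of them, came from the Consortium for Functional Glycomics database and were retained only where the protein sequence was available. Z-scores were averaged across arrays of the same protein sequence at different concentrations or buffers and across linkers.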
# Gal(b1-4)Glc = biological target: Gal(b1-4)Glc
# In short: as §1
# Gal(b1-4)Glc6S = biological target: Gal(b1-4)Glc6S
# In short: as §1
# Gal(b1-4)GlcNAc = biological target: Gal(b1-4)GlcNAc
# In short: as §1
# [2] = biological target: Gal(b1-4)GlcNAc(a1-6)Gal(b1-4)GlcNAc
# In short: as §1
# Gal(b1-4)GlcNAc(b1-2)Man = biological target: Gal(b1-4)GlcNAc(b1-2)Man
# In short: as §1
# [3] = biological target: Gal(b1-4)GlcNAc(b1-2)Man(a1-3)Man(b1-4)GlcNAc(b1-4)GlcNAc
# In short: as §1
# [4] = biological target: Gal(b1-4)GlcNAc(b1-2)Man(a1-3)[Gal(b1-4)GlcNAc(b1-2)Man(a1-6)]Man(b1-4)GlcNAc(b1-4)GlcNAc
# In short: as §1
# [5] = biological target: Gal(b1-4)GlcNAc(b1-2)Man(a1-3)[Gal(b1-4)GlcNAc(b1-2)Man(a1-6)]Man(b1-4)GlcNAc(b1-4)[Fuc(a1-6)]GlcNAc
# In short: as §1
# [6] = biological target: Gal(b1-4)GlcNAc(b1-2)Man(a1-3)[Gal(b1-4)GlcNAc(b1-2)Man(a1-6)][Gal(b1-4)GlcNAc(b1-4)]Man(b1-4)GlcNAc(b1-4)[Fuc(a1-6)]GlcNAc
# In short: as §1
# [7] = biological target: Gal(b1-4)GlcNAc(b1-2)Man(a1-3)[Gal(b1-4)GlcNAc(b1-2)Man(a1-6)][GlcNAc(b1-4)]Man(b1-4)GlcNAc(b1-4)[Fuc(a1-6)]GlcNAc
# In short: as §1
# [8] = biological target: Gal(b1-4)GlcNAc(b1-2)Man(a1-3)[GlcNAc(b1-2)Man(a1-6)]Man(b1-4)GlcNAc(b1-4)GlcNAc
# In short: as §1
# [9] = biological target: Gal(b1-4)GlcNAc(b1-2)Man(a1-3)[GlcNAc(b1-4)][Gal(b1-4)GlcNAc(b1-2)Man(a1-6)]Man(b1-4)GlcNAc(b1-4)GlcNAc
# In short: as §1
# [10] = biological target: Gal(b1-4)GlcNAc(b1-2)Man(a1-3)[Man(a1-6)]Man(b1-4)GlcNAc(b1-4)GlcNAc
# In short: as §1
# [11] = biological target: Gal(b1-4)GlcNAc(b1-2)Man(a1-6)Man(b1-4)GlcNAc(b1-4)GlcNAc
# In short: as §1
# [12] = biological target: Gal(b1-4)GlcNAc(b1-2)Man(a1-6)[GlcNAc(b1-2)Man(a1-3)]Man(b1-4)GlcNAc(b1-4)GlcNAc
# In short: as §1
# [13] = biological target: Gal(b1-4)GlcNAc(b1-2)Man(a1-6)[Man(a1-3)]Man(b1-4)GlcNAc(b1-4)GlcNAc
# In short: as §1
# [14] = biological target: Gal(b1-4)GlcNAc(b1-2)[Gal(b1-4)GlcNAc(b1-4)]Man(a1-3)[Gal(b1-4)GlcNAc(b1-2)Man(a1-6)]Man(b1-4)GlcNAc(b1-4)GlcNAc
# In short: as §1
# [15] = biological target: Gal(b1-4)GlcNAc(b1-2)[Gal(b1-4)GlcNAc(b1-4)]Man(a1-3)[Gal(b1-4)GlcNAc(b1-2)[Gal(b1-4)GlcNAc(b1-6)]Man(a1-6)]Man(b1-4)GlcNAc(b1-4)GlcNAc
# In short: as §1
# [16] = biological target: Gal(b1-4)GlcNAc(b1-2)[Gal(b1-4)GlcNAc(b1-4)]Man(a1-3)[GlcNAc(b1-4)][Gal(b1-4)GlcNAc(b1-2)Man(a1-6)]Man(b1-4)GlcNAc(b1-4)GlcNAc
# In short: as §1
# [17] = biological target: Gal(b1-4)GlcNAc(b1-2)[Gal(b1-4)GlcNAc(b1-4)]Man(a1-3)[GlcNAc(b1-4)][Gal(b1-4)GlcNAc(b1-2)[Gal(b1-4)GlcNAc(b1-6)]Man(a1-6)]Man(b1-4)GlcNAc(b1-4)GlcNAc
# In short: as §1
# [18] = biological target: Gal(b1-4)GlcNAc(b1-2)[Gal(b1-4)GlcNAc(b1-6)]Man(a1-6)[Gal(b1-4)GlcNAc(b1-2)Man(a1-3)]Man(b1-4)GlcNAc(b1-4)GlcNAc
# In short: as §1
# [19] = biological target: Gal(b1-4)GlcNAc(b1-2)[Gal(b1-4)GlcNAc(b1-6)]Man(a1-6)[Gal(b1-4)GlcNAc(b1-2)Man(a1-3)]Man(b1-4)GlcNAc(b1-4)[Fuc(a1-6)]GlcNAc
# In short: as §1
# [20] = biological target: Gal(b1-4)GlcNAc(b1-2)[Gal(b1-4)GlcNAc(b1-6)]Man(a1-6)[GlcNAc(b1-4)][Gal(b1-4)GlcNAc(b1-2)Man(a1-3)]Man(b1-4)GlcNAc(b1-4)GlcNAc
# In short: as §1
# [21] = biological target: Gal(b1-4)GlcNAc(b1-2)[Gal(b1-4)GlcNAc(b1-6)]Man(a1-6)[GlcNAc(b1-4)][Gal(b1-4)GlcNAc(b1-2)[Gal(b1-4)GlcNAc(b1-4)]Man(a1-3)]Man(b1-4)GlcNAc(b1-4)[Fuc(a1-6)]GlcNAc
# In short: as §1
# [22] = biological target: Gal(b1-4)GlcNAc(b1-3)Gal(b1-3)GalNAc
# In short: as §1
# [23] = biological target: Gal(b1-4)GlcNAc(b1-3)Gal(b1-3)GlcNAc
# In short: as §1
# [24] = biological target: Gal(b1-4)GlcNAc(b1-3)Gal(b1-4)Glc
# In short: as §1
# [25] = biological target: Gal(b1-4)GlcNAc(b1-3)Gal(b1-4)GlcNAc
# In short: as §1
# [26] = biological target: Gal(b1-4)GlcNAc(b1-3)Gal(b1-4)GlcNAc(b1-2)Man(a1-3)[Gal(b1-4)GlcNAc(b1-3)Gal(b1-4)GlcNAc(b1-2)Man(a1-6)]Man(b1-4)GlcNAc(b1-4)GlcNAc
# In short: as §1
# [27] = biological target: Gal(b1-4)GlcNAc(b1-3)Gal(b1-4)GlcNAc(b1-2)Man(a1-3)[Gal(b1-4)GlcNAc(b1-3)Gal(b1-4)GlcNAc(b1-2)Man(a1-6)]Man(b1-4)GlcNAc(b1-4)[Fuc(a1-6)]GlcNAc
# In short: as §1
# [28] = biological target: Gal(b1-4)GlcNAc(b1-3)Gal(b1-4)GlcNAc(b1-2)[Gal(b1-4)GlcNAc(b1-3)Gal(b1-4)GlcNAc(b1-6)]Man(a1-6)[Gal(b1-4)GlcNAc(b1-3)Gal(b1-4)GlcNAc(b1-2)Man(a1-3)]Man(b1-4)GlcNAc(b1-4)GlcNAc
# In short: as §1
# [29] = biological target: Gal(b1-4)GlcNAc(b1-3)Gal(b1-4)GlcNAc(b1-2)[Gal(b1-4)GlcNAc(b1-3)Gal(b1-4)GlcNAc(b1-6)]Man(a1-6)[Gal(b1-4)GlcNAc(b1-3)Gal(b1-4)GlcNAc(b1-2)Man(a1-3)]Man(b1-4)GlcNAc(b1-4)[Fuc(a1-6)]GlcNAc
# In short: as §1
# [30] = biological target: Gal(b1-4)GlcNAc(b1-3)Gal(b1-4)GlcNAc(b1-3)Gal(b1-4)GlcNAc
# In short: as §1
# [31] = biological target: Gal(b1-4)GlcNAc(b1-3)Gal(b1-4)GlcNAc(b1-3)Gal(b1-4)GlcNAc(b1-2)Man(a1-3)[Gal(b1-4)GlcNAc(b1-3)Gal(b1-4)GlcNAc(b1-3)Gal(b1-4)GlcNAc(b1-2)Man(a1-6)]Man(b1-4)GlcNAc(b1-4)GlcNAc
# In short: as §1
# [32] = biological target: Gal(b1-4)GlcNAc(b1-3)Gal(b1-4)GlcNAc(b1-3)Gal(b1-4)GlcNAc(b1-2)Man(a1-3)[Gal(b1-4)GlcNAc(b1-3)Gal(b1-4)GlcNAc(b1-3)Gal(b1-4)GlcNAc(b1-2)Man(a1-6)]Man(b1-4)GlcNAc(b1-4)[Fuc(a1-6)]GlcNAc
# In short: as §1
# [33] = biological target: Gal(b1-4)GlcNAc(b1-3)Gal(b1-4)GlcNAc(b1-3)Gal(b1-4)GlcNAc(b1-2)[Gal(b1-4)GlcNAc(b1-3)Gal(b1-4)GlcNAc(b1-3)Gal(b1-4)GlcNAc(b1-6)]Man(a1-6)[Gal(b1-4)GlcNAc(b1-3)Gal(b1-4)GlcNAc(b1-3)Gal(b1-4)GlcNAc(b1-2)Man(a1-3)]Man(b1-4)GlcNAc(b1-4)[Fuc(a1-6)]GlcNAc
# In short: as §1
binder,measurement,setting,value
B1,glycan array binding signal (z-score),[1],-1.1
same,glycan array binding signal (z-score),Gal(b1-4)Glc,-0.686
same,glycan array binding signal (z-score),Gal(b1-4)Glc6S,1.12
same,glycan array binding signal (z-score),Gal(b1-4)GlcNAc,-0.494
same,glycan array binding signal (z-score),[2],-0.351
same,glycan array binding signal (z-score),Gal(b1-4)GlcNAc(b1-2)Man,0.682
same,glycan array binding signal (z-score),[3],-0.399
same,glycan array binding signal (z-score),[4],-0.39
same,glycan array binding signal (z-score),[5],0.108
same,glycan array binding signal (z-score),[6],-0.562
same,glycan array binding signal (z-score),[7],-0.687
same,glycan array binding signal (z-score),[8],-0.699
same,glycan array binding signal (z-score),[9],-0.598
same,glycan array binding signal (z-score),[10],0.362
same,glycan array binding signal (z-score),[11],-0.267
same,glycan array binding signal (z-score),[12],-0.516
same,glycan array binding signal (z-score),[13],-0.334
same,glycan array binding signal (z-score),[14],-0.354
same,glycan array binding signal (z-score),[15],-0.734
same,glycan array binding signal (z-score),[16],-0.441
same,glycan array binding signal (z-score),[17],-0.549
same,glycan array binding signal (z-score),[18],-0.692
same,glycan array binding signal (z-score),[19],-0.604
same,glycan array binding signal (z-score),[20],-0.708
same,glycan array binding signal (z-score),[21],-0.791
same,glycan array binding signal (z-score),[22],-0.109
same,glycan array binding signal (z-score),[23],-0.579
same,glycan array binding signal (z-score),[24],-0.051
same,glycan array binding signal (z-score),[25],-0.605
same,glycan array binding signal (z-score),[26],1.77
same,glycan array binding signal (z-score),[27],0.079
same,glycan array binding signal (z-score),[28],2.18
same,glycan array binding signal (z-score),[29],0.542
same,glycan array binding signal (z-score),[30],-0.401
same,glycan array binding signal (z-score),[31],2.55
same,glycan array binding signal (z-score),[32],0.547
same,glycan array binding signal (z-score),[33],1.26

# 3 records picked at random from those above:
binder,measurement,setting,value
B1,glycan array binding signal (z-score),[27],0.079
same,glycan array binding signal (z-score),[29],0.542
same,glycan array binding signal (z-score),[26],1.77
